According to PubChem BioAssay AID743266 (National Center for Advancing Translational Sciences (NCATS), 2014):
In all, about 410,000 compounds went through this assay and about 310 (0.076%) were called active. This list was built around the results that the source calls inconclusive (neither active nor inactive); the mix of calls is not that of the screen. The call rests on the fitted dose curve; in most records, active means well fitted activation curve with a large enough effect; inconclusive means small, poorly fitted or top-dose-only effect, or another doubt; inactive means no such curve, though single readings can be large or run the other way. Potencies of inconclusive entries are doubtful fits and often do not repeat.

Amino acid sequences for entries named in this document (tags omitted). A change or cut given only in a name is not applied to a line headed by its entry.
UniProt Q03431: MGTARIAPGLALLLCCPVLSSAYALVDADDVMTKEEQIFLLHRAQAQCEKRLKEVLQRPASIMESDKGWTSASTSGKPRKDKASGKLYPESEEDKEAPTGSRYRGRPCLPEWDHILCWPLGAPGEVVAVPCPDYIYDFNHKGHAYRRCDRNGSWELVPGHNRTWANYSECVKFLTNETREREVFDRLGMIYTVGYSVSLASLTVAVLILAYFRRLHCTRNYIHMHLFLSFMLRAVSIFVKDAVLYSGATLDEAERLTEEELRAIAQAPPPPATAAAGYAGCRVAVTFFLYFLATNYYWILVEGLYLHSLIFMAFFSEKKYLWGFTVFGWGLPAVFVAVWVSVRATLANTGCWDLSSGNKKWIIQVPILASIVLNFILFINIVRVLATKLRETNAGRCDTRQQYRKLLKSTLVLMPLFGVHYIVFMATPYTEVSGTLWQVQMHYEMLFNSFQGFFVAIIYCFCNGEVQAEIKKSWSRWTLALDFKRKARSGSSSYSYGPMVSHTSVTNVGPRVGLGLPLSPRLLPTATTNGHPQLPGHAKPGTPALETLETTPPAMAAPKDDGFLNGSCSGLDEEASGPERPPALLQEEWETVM

Each molecule was assayed against Parathyroid hormone/parathyroid hormone-related peptide receptor (Homo sapiens) (UniProt Q03431) (assay: qHTS for PTHR1 Agonists: Primary Screen). Details: HEK293 GP2 PTHR1 cells, GloSensor cAMP luminescence, 1 h; activation: at 115 µM (top of the series) unless noted; series mostly up to 115 µM.
Summary of the method: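 HEK-293-derived GP2 cells expressing PTHR1 and a GloSensor cAMP reporter, 3,000/well, plated overnight, given luciferin plus IBMX (each 0.5 mM as added) for 1 h at 37 °C, then compound for 1 h at 37 °C. Luminescence was read after 15 min at room temperature.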
Further: nearly all actives have a fitted effect of over 55% in size.
Potency means the concentration at half of the fitted maximal effect.

SMILES	activation	Potency	outcome
Cc1cc(C)cc(Cn2cc(CN3CC(N4CCSCC4)CS3(=O)=O)nn2)c1 (stereo not drawn)	inactive: 2.76%	–	–
COc1cc(NS(=O)(=O)c2ccc(NC(=S)NC(=O)C(C)(C)C)cc2)nc(OC)n1	–	inconclusive: 35.5 µM [activator, single point]	–
Cc1ccc(NC(=S)NCc2ccccn2)cc1	–	active: 15.8 µM	–
CC(C)(C)Nc1nc(C(N)=O)nc(N2CCOCC2)n1	–	inconclusive: 31.6 µM [activator, single point]	–
CC(=O)Nc1ccccc1-c1nc2ccccc2n(CC(=O)Nc2ccc(C)c(Cl)c2)c1=O	–	inconclusive: 141 µM [activator, single point]	–
Cc1cc(C)c2sc(N(CCCN(C)C)C(=O)CN3C(=O)c4ccccc4C3=O)nc2c1	–	–	inactive
CCCCn1c(SCC(=O)Nc2ccccc2C(F)(F)F)nc2ccsc2c1=O	–	–	inactive [at 57.5 µM]
O=C1CC(N2CCN(c3ccccn3)CC2)C(=O)N1CC(c1ccccc1)c1ccccc1 (stereo not drawn)	inconclusive: -37.2% [activator]	–	–
COc1ccc(NC(=O)Cn2nc3c(cc2=O)CCCC3)cc1Cl	inconclusive: 31.5% [activator]	–	–
Cc1cccc(C)c1NC(=O)NCCCN1CCN(c2ccccc2)CC1	–	inactive	–
Cc1oc(-c2ccc(Cl)cc2)cc1C(=O)O	inactive: -0.6%	–	–
CCOc1cc(C2Nc3ccccc3C(=O)N2c2ccccc2OC)ccc1O (stereo not drawn)	inconclusive: 31% [activator]	–	–
CCOc1ccccc1CN1CCCC(C(=O)c2ccc(OC)c(OC)c2)C1 (stereo not drawn)	inconclusive: -90.6% [activator]	–	–
COc1ccc(Nc2nc3cc(-c4ccccc4C)sc3c(=O)n2C)cc1OC	–	–	inactive
O=C(CSc1nc2c([nH]c3ccccc32)c(=O)n1-c1ccccc1)N1CCCc2ccccc21	–	inconclusive: 79.4 µM [activator, partial curve, poor fit]	–
COc1ccccc1CNC(=O)CCC1N=C2c3ccccc3N=C(SCC(=O)NCCc3ccc(OC)c(OC)c3)N2C1=O (stereo not drawn)	inconclusive: -50.9% [activator]	–	–
COc1cc(CNC2CCCCCCC2)cc(Cl)c1OC	–	inconclusive: 100 µM [activator, single point]	–
CC(C)c1nnc(NC(=O)c2nc(S(=O)(=O)Cc3ccccc3F)ncc2Cl)s1	inactive: -32.8%	–	–
CC(C)CCN1CCN(C2CSCCSC2)CC1CCO (stereo not drawn)	–	inconclusive: 100 µM [activator, single point]	–
CCOC(=O)c1c(C)[nH]c(C)c1C(=O)COC(=O)Cc1ccc(OC)c(OC)c1	–	inconclusive: 50.1 µM [activator, partial curve, poor fit]	–
CN(c1cccc(NC(=O)CN(c2ccc(F)cc2)S(C)(=O)=O)c1)S(C)(=O)=O	–	–	inactive
CC1=C(C(=O)NCc2ccc(Cl)cc2)C2(CCCCCC2)OC1=O	inconclusive: -67% [activator]	–	–
COc1cc(OC)cc(C(=O)N/N=C\c2ccoc2)c1	–	inconclusive: 89.1 µM [activator, partial curve, poor fit]	–
CN(c1ccc(C(=O)NCC2CCCO2)cc1)S(=O)(=O)c1ccccc1 (stereo not drawn)	inconclusive: -31.4% [activator] [at 57.5 µM]	–	–
CCCOc1ccc(-c2nc(C#N)c(N3CCc4ccccc4C3)o2)cc1	–	inconclusive: 39.8 µM [activator, single point]	–

Pulled by structure from above, four records:
SMILES	activation	Potency	outcome
CCOc1ccccc1CN1CCCC(C(=O)c2ccc(OC)c(OC)c2)C1 (stereo not drawn)	inconclusive: -90.6% [activator]	–	–
COc1cc(CNC2CCCCCCC2)cc(Cl)c1OC	–	inconclusive: 100 µM [activator, single point]	–
Cc1oc(-c2ccc(Cl)cc2)cc1C(=O)O	inactive: -0.6%	–	–
COc1ccc(NC(=O)Cn2nc3c(cc2=O)CCCC3)cc1Cl	inconclusive: 31.5% [activator]	–	–

Later entries

SMILES	activation	Potency	outcome
COc1ccc(NC(=O)c2sc3nc(-c4cc5cccc(OC)c5oc4=O)[nH]c(=O)c3c2C)cc1	–	inconclusive: 39.8 µM [activator, partial curve, poor fit]	–
Cc1cccc(/C=C2\Sc3ccc(C(=O)N4CCOCC4)cc3N(C)C2=O)c1	inactive: -10.9%	–	–
COc1ccc2oc(C(=O)OCC(=O)N3CCCC(C)C3)c(C)c2c1 (stereo not drawn)	–	–	inactive
Oc1ccc(-c2cnc3c(Nc4cccc(OC(F)(F)C(F)F)c4)nccn23)cc1	inactive: -15.9%	–	–
O=C(O)CCC(=O)N1N=C(c2ccccc2)CC1c1ccc2c(c1)OCO2 (stereo not drawn)	–	inconclusive: 15.8 µM [activator, partial curve]	–
O=C1C2=C(SCCS2)C(=O)N1c1ccccc1	–	inconclusive: 1.12 µM [activator, partial curve, poor fit]	–
O=C(O)CSCC(=O)Nc1cc(C(F)(F)F)ccc1Cl	–	inconclusive: 39.8 µM [activator, single point]	–
Cc1cc2nc(C(C)(C)C)c(Cc3ccccc3)n2c(C)c1Br	inconclusive: 33.1% [activator]	–	–
CCN(CC)C(=O)C1CC(=O)OC12CCCCC2 (stereo not drawn)	–	inconclusive: 35.5 µM [activator, partial curve, poor fit]	–
O=C(Cn1ncc2c(=O)oc3ccccc3c21)NCc1cccnc1	–	inconclusive: 8.91 µM [activator, partial curve, poor fit]	–
C=CCC1(CC=C)CCCN1C(=O)c1cc(COc2cccc(C(F)(F)F)c2)on1	inactive: -72.1%	–	–
CN(C(=O)CSc1nc(N)cc(N)n1)C1CCS(=O)(=O)C1 (stereo not drawn)	–	–	inactive
Cc1cc(C)nc(SCC2COc3ccccc3O2)n1 (stereo not drawn)	–	–	inactive [at 57.5 µM]
Cc1cccc(NC(=O)c2c(O)c3ccccc3n(C)c2=O)c1	inactive: -40.7%	–	–
CC1(C(=O)NS(=O)(=O)c2ccccc2)CCN1C(=O)CC1CCCCC1 (stereo not drawn)	inactive: -0.6%	–	–
COc1ccc(C(=O)c2sc3nc(-c4ccc(C)cc4)cc(C(F)(F)F)c3c2N)cc1	inactive: -4.83%	–	–
Cn1c(OCc2cccnc2)nc2c1c(=O)n(Cc1ccc(Cl)cc1)c(=O)n2C	–	inconclusive: 126 µM [activator, single point]	–
CC(C)NS(=O)(=O)c1ccc(OCC(=O)Nc2ccccc2F)cc1	–	inconclusive: 15.8 µM [activator, partial curve]	–
COC(=O)c1sccc1NC(=O)COc1ccc(C)cc1	–	inconclusive: 25.1 µM [activator, partial curve, poor fit]	–
O=C(CN1CC[n+]2c(-c3cccs3)csc21)c1ccc(-c2ccccc2)cc1	inactive: -41.3%	–	–
COc1ccccc1N1CCN(C(=O)c2cc(-c3ccccc3)nc3c2cnn3C(C)C)CC1	inactive: -24.5%	–	–
CCOc1ccc(-c2cc3c(=O)n(Cc4nc(-c5ccccc5OCC)oc4C)ccn3n2)cc1Cl	–	inconclusive: 11.2 µM [activator, partial curve, poor fit]	–
OC(c1ccc2c(c1)OCO2)c1ncc(-c2cccc(C(F)(F)F)c2)[nH]1 (stereo not drawn)	inactive: -58.4%	–	–
COc1cc(C(=O)NCCOc2cc(C)cc(C)c2)cc(OC)c1OC	–	–	inactive
O=c1c(=O)n(-c2ccccc2)ccn1Cc1c(F)cccc1Cl	inactive: 17.9%	–	–

SMILES	activation	Potency	outcome
CC(C)(C)NS(=O)(=O)c1ccc(CCC(=O)Nc2ccc3c(c2)OCO3)cc1	–	inconclusive: 39.8 µM [activator, single point]	–
CCOC(=O)N1CCN(C(c2ccnc3ccccc23)c2nnnn2-c2c(C)cccc2C)CC1 (stereo not drawn)	inconclusive: 52.1% [activator]	–	–
COCCN(C(=O)C1CC(=O)N(Cc2ccc(C)cc2)C1)c1c(N)n(CC(C)C)c(=O)[nH]c1=O (stereo not drawn)	inconclusive: 33.3% [activator]	–	–
CCCSc1ncnc2c1oc1ccccc12	–	inconclusive: 35.5 µM [activator, single point]	–
O=C1CC(c2ccc(S(=O)(=O)N3CCN(c4ccccc4)CC3)cc2)CN1 (stereo not drawn)	–	inconclusive: 2.82 µM [activator, full curve, poor fit]	–
CN1CCc2cc(Cl)c(O)cc2[C@@H](c2ccccc2)C1	inactive: -21.6%	–	–
CCCc1nnc(NC(=O)c2cc(=O)c3cc(C)c(C)cc3o2)s1	inactive: -4.02%	–	–
CCOC(=O)c1cnc2ccc(C)cc2c1Nc1ccc(N(CC)CC)cc1	inconclusive: -90% [activator]	–	–
COc1ccc(S(=O)(=O)/N=C2\C=C(Nc3ccc(O)cc3)C(=O)c3ccccc32)cc1	inactive: -18.4%	–	–
C=CCc1ccccc1OCC(O)CNC (stereo not drawn)	–	inconclusive: 44.7 µM [activator, single point]	–
O=C(COC(=O)CSc1ccc(F)cc1)NCc1ccco1	–	inconclusive: 28.2 µM [activator, partial curve, poor fit]	–
COc1cc(OC)c(NC(=O)c2noc3c2CSc2ccccc2-3)cc1Cl	–	inconclusive: 14.1 µM [activator, partial curve, poor fit]	–
COC(=O)c1cc(NCc2ccc3c(c2)OCO3)ccc1N1CCOCC1	inactive: -11.5%	–	–
COc1ccc(N2CCN(C(=O)NCc3ccc(OC)c(OC)c3)CC2)cc1	inconclusive: 45% [activator]	–	–
Cc1cc(NC(=O)CCCC(=O)NCc2ccccc2)no1	–	inconclusive: 126 µM [activator, partial curve, poor fit]	–
CCOc1c2ccc(C(=O)NCc3ccccc3OC)cc2nn1CC	–	inconclusive: 126 µM [activator, single point]	–
Cc1ccc(C(=O)Oc2cc(-c3ccc4c(c3)OCO4)cc(=O)c3c(C)oc(C)c23)cc1	inconclusive: 41.4% [activator]	–	–
COc1ccc(CCNC(=O)Cc2ccc([N+](=O)[O-])cc2)cc1OC	–	inconclusive: 112 µM [activator, single point]	–
O=c1cc(O)n(C2CCCCCC2)c(=O)[nH]1	–	–	inactive
O=C(CCNS(=O)(=O)c1ccc2[nH]c(=O)oc2c1)Nc1ccccc1	–	inconclusive: 141 µM [activator, single point]	–
O=C(CN1CCCCC1)NN(Cc1ccccc1)c1ccccc1	inconclusive: 39.8% [activator]	–	–
COc1cc(-c2cnc3c(NC=O)cc(-c4cccc(NC(C)=O)c4)cn23)cc(OC)c1OC	–	inconclusive: 35.5 µM [activator, partial curve, poor fit]	–
COc1ccccc1CNC(=O)c1cc2c(-c3ccc(Cl)cc3)nn(C)c2s1	–	inconclusive: 79.4 µM [activator, partial curve, poor fit]	–

Gathered by group, the entries above containing a COOH group.
SMILES	activation	Potency	outcome
Cc1oc(-c2ccc(Cl)cc2)cc1C(=O)O	inactive: -0.6%	–	–
O=C(O)CCC(=O)N1N=C(c2ccccc2)CC1c1ccc2c(c1)OCO2 (stereo not drawn)	–	inconclusive: 15.8 µM [activator, partial curve]	–
O=C(O)CSCC(=O)Nc1cc(C(F)(F)F)ccc1Cl	–	inconclusive: 39.8 µM [activator, single point]	–
